Assay results reported in article doi:10.1101/2024.05.31.596839.
Results are given in words; binding and its absence hold for the method and conditions named. Some entries that bind do so weakly or less than the wild type. Each block holds one binder with its values, some of them ahead of it.

Legend:
Experiment in all cases: ReLo
Krimper (Drosophila) = target: T1, Krimper (Drosophila) (UniProt A1ZAC4)
T1 sequence: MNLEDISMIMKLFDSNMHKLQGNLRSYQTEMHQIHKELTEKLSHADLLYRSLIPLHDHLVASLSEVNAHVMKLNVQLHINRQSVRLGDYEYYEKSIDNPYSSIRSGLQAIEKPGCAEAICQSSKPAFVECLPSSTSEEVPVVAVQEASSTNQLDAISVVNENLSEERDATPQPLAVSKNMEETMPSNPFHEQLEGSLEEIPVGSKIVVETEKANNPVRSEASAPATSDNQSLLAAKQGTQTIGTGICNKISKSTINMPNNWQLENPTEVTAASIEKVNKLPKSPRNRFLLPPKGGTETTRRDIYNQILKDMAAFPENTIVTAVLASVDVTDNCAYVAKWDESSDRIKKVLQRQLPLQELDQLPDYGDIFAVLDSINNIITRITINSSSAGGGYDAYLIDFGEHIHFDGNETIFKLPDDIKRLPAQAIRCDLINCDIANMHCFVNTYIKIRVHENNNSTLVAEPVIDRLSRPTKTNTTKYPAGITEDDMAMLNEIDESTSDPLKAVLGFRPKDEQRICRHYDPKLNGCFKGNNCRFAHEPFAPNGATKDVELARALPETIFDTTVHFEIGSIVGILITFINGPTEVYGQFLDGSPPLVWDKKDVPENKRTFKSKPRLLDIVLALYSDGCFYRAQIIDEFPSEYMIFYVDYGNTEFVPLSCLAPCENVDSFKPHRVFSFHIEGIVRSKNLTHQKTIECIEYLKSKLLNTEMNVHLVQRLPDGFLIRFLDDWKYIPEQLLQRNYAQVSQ

Papi (Drosophila) = target: T2, Papi (Drosophila) (UniProt Q9VQ91)
T2 sequence: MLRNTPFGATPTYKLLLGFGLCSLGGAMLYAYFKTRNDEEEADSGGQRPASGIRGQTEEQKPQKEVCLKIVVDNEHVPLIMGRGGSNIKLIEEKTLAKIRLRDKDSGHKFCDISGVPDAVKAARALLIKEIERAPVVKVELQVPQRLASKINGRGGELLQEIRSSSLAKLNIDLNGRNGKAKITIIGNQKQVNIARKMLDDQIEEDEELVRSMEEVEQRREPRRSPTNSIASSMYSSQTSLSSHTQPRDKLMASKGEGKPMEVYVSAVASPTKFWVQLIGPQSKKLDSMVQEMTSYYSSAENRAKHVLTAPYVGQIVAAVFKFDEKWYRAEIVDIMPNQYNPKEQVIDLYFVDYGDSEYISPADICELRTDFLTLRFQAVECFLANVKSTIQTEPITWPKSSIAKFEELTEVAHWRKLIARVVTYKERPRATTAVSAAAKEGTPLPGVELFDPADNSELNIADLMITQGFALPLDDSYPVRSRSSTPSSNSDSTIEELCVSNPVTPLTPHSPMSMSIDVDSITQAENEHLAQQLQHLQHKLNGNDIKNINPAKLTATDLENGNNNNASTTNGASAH

[1] = target: T3, BoYb NTD_MUT (Drosophila) (UniProt Q9VNP5)
T3 sequence: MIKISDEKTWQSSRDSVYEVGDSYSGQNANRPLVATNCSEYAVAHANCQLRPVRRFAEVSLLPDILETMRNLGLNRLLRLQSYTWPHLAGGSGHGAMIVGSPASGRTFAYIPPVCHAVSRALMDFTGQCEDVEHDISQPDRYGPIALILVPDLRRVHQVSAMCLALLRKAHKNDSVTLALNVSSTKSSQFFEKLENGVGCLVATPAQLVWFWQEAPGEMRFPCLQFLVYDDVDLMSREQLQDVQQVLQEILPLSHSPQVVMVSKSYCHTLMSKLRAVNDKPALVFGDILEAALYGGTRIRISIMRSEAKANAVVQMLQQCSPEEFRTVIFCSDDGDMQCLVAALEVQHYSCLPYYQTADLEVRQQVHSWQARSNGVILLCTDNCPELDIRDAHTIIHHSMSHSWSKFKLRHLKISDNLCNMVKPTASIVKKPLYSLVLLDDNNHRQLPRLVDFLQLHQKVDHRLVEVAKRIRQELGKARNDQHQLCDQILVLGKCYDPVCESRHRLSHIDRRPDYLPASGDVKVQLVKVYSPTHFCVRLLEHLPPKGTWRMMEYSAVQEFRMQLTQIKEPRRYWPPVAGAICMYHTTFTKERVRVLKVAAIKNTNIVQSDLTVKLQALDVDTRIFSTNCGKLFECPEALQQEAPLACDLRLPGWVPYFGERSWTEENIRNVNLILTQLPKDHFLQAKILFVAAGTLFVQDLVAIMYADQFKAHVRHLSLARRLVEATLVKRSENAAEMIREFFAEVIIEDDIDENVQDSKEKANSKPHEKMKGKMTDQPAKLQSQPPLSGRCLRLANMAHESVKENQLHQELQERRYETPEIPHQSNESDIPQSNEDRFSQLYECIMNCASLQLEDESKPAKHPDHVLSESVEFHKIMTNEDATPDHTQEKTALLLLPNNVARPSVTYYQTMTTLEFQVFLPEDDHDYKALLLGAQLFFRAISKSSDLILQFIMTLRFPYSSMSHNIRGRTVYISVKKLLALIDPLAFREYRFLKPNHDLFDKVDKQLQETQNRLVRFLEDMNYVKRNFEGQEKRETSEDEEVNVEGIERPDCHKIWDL

- binding (Krimper (Drosophila)): binds
- binding (Papi (Drosophila)): no binding
B1: Argonaute 3 (protein, UniProt Q7PLK0 1-867)
chain: MSGRGNLLSLFNKNAGNMGKSISSKDHEIDSGLDFNNSESSGERLLSSHNIETDLITTLQHVNISVGRGRARLIDTLKTDDHTSNQFITSESKENITKKTKGPESEAIASENGLFFPDLIYGSKGSSVNIYCNYLKLTTDESKGVFNYEVRFFPPIDSVHLRIKYLNDHKDKLGGTKTFDGNTLYLPILLPNKMTVFISKAEDVELQIRILYKKKEEMRNCTQLYNILFDRVMKVLNYVKFDRKQFDPSRPKIIPLAKLEVWPGYVTAVDEYKGGLMLCCDVSHRILCQKTVLEMLVDLYQQNVEHYQESARKMLVGNIVLTRYNNRTYKINDICFDQNPTCQFEIKTGCTSYVEYYKQYHNINIKDVNQPLIYSIKKSRGIPAERENLQFCLIPELCYLTGLRDEVRSDNKLMREIATFTRVSPNQRQMALNKFYENVSNTPAAQEILNSWGLSLTNNSNKISGRQMDIEQIYFSKISVSAGRSAEFSKHAVTNEMLKVVHLSKWIIIHLRNYRQAATSLLDNMKQACESLGMNISNPTMISLDHDRIDAYIQALRRNITMNTQMVVCICHNRRDDRYAAIKKICCSEIPIPSQVINAKTLQNDLKIRSVVQKIVLQMNCKLGGSLWTVKIPFKNVMICGIDSYHDPSNRGNSVAAFVASINSSYSQWYSKAVVQTKREEIVNGLSASFEIALKMYRKRNGKLPTNIIIYRDGIGDGQLYTCLNYEIPQFEMVCGNRIKISYIVVQKRINTRIFSGSGIHLENPLPGTVVDQHITKSNMYDFFLVSQLVRQGTVTPTHYVVLRDDCNYGPDIIQKLSYKLCFLYYNWAGTVRIPACCMYAHKLAYLIGQSIQRDVAEALSEKLFYL

- binding [1]: no binding
B2: Vret-N (domain or fragment, UniProt Q9VCU7 1-178)
chain: MESESSQDDWSAFDPMSREYYDQVGNRYTNESGQKLIMEAPLPPKDEKEQRATRQAKYPYLVVPKSSPYVTEKMLINFFGRALIKEMEFRRLSRVYFVYFENIASLETAQQRVQRYPNLIKCITGRPQKEREITSDPVTSTEPMPTPGPAISATERTPVNHNREVPISTGGQNHPEFF

- binding (Papi (Drosophila)): binds
B3: Piwi (protein, UniProt Q9VKM1 1-843)
chain: MADDQGRGRRRPLNEDDSSTSRGSGDGPRVKVFRGSSSGDPRADPRIEASRERRALEEAPRREGGPTERKPWGDQYDYLNTRPAELVSKKGTDGVPVMLQTNFFRLKTKPEWRIVHYHVEFEPSIENPRVRMGVLSNHANLLGSGYLFDGLQLFTTRKFEQEITVLSGKSKLDIEYKISIKFVGFISCAEPRFLQVLNLILRRSMKGLNLELVGRNLFDPRAKIEIREFKMELWPGYETSIRQHEKDILLGTEITHKVMRTETIYDIMRRCSHNPARHQDEVRVNVLDLIVLTDYNNRTYRINDVDFGQTPKSTFSCKGRDISFVEYYLTKYNIRIRDHNQPLLISKNRDKALKTNASELVVLIPELCRVTGLNAEMRSNFQLMRAMSSYTRMNPKQRTDRLRAFNHRLQNTPESVKVLRDWNMELDKNVTEVQGRIIGQQNIVFHNGKVPAGENADWQRHFRDQRMLTTPSDGLDRWAVIAPQRNSHELRTLLDSLYRAASGMGLRIRSPQEFIIYDDRTGTYVRAMDDCVRSDPKLILCLVPNDNAERYSSIKKRGYVDRAVPTQVVTLKTTKNRSLMSIATKIAIQLNCKLGYTPWMIELPLSGLMTIGFDIAKSTRDRKRAYGALIASMDLQQNSTYFSTVTECSAFDVLANTLWPMIAKALRQYQHEHRKLPSRIVFYRDGVSSGSLKQLFEFEVKDIIEKLKTEYARVQLSPPQLAYIVVTRSMNTRFFLNGQNPPPGTIVDDVITLPERYDFYLVSQQVRQGTVSPTSYNVLYSSMGLSPEKMQKLTYKMCHLYYNWSGTTRVPAVCQYAKKLATLVGTNLHSIPQNALEKKFYYL
